Experimental data from patent US20260284208A1, “SYSTEM” (Oxford University Innovation Limited, priority 2023, published 2026).
The source gives many values for each of these; only a part stands here.

System: library of 8,380 IKZF3 degrons (ZF-eGFP/mCherry reporter) in Jurkat cells
Assay: Pooled library screen (FACS, NGS, limma voom LogFC of positive vs negative read counts)
Format: cell-based, human
Experimental: A library of 8,380 IKZF3 degrons was cloned into pLVX-Sprout to create the eGFP/mCherry protein degradation reporter plasmid pool. A lentivirus pool was then generated using the Lenti-X lentiviral vector production method.
Jurkat cells were transduced at a multiplicity of infection of <0.3 with the lentivirus vector library in order to maximise the number of cells with a single integration. Transductions were carried out in 6 well TC-treated cell culture dishes (Falcon) with 3×10^6 cells per well. Cells were incubated for 2 days at 37° C. and 5% CO2 before the supernatant was removed and replaced with fresh media. 6 days post-transduction, mCherry+ cells were isolated via FACS using the FACS Aria Fusion (BD) in a buffer containing PBS (Gibco), 2 mM EDTA (Gibco), 25 mM HEPES (Sigma) and 1% BSA (Sigma). 8 days later, cells were treated with DMSO or a thalidomide analog for 18 hours at 37° C. and 5% CO2. mCherry+GFPlow and NOT(mCherry+GFPlow) cells were sorted by FACS using the FACS Aria Fusion (BD). DMSO treated cells were used to set the mCherry+GFPlow gate and dead cells were excluded from sorting by staining cells with 1 μg/mL DAPI (ThermoFisher). gDNA was isolated using the Maxwell RSC 48 (Promega). gDNA from cells that were unsorted and untreated were also isolated to determine the library representation on the day of compound treatment. Throughout the screen >600× coverage of the library was maintained. 3 biological replicates were carried out with a new transduction taking place each time.
A two-step PCR was used where the first PCR (PCR1) amplified the integrated degron sequence from gDNA and the second PCR (PCR2) added Illumina adaptors and barcodes to permit multiplexing. See Supp F for PCR1 and PCR2 primers. Q5 Hot Start High-Fidelity 2× Master Mix (New England Biolabs) was used for both PCRs. Sufficient gDNA was amplified in PCR1 in order to maintain >600× coverage and amplicons were purified using solid phase reversible immobilization (SPRI) beads (Beckman Coulter). Purified PCR1 products were analysed on the Tapestation 4200 (Agilent) to confirm purity prior to proceeding to PCR2. Sufficient PCR1 product was amplified in PCR2 in order to maintain >600× coverage and amplicons were run on a 2% agarose TAE gel. Target bands were excised and purified using the NucleoSpin Gel and PCR Clean-up Kit (Machery Nagel). Amplicons were analysed on the Tapestation 4200 and quantified using Qubit dsDNA HS kit (ThermoFisher). PCR products were pooled and sequenced as paired-reads on the NovaSeq (Illumina) using a SP2 200 cycles kit (Illumina).
Count distributions, percentage of read mapping, library coverage and replicate correlation per sample were assessed for QC purposes.
To carry out the library screen, we used the same plasmid construct as in our earlier flow cytometry assays, but pooling all 8,380 mutants together into one Jurkat population, ensuring a copy number of one plasmid per cell (FIG. 4B). […] These GFP-negative cells were then separated from the remaining GFP-positive population using fluorescence activated cell sorting (FACS). These two populations were then sequenced and the relative abundance of every mutant in both populations compared to provide a log FC value for each mutant sequence. This value indicated how frequently a sequence is observed in the GFP-negative population relative to the GFP-positive population, and therefore how effective a degron it is for that particular IMID compound.

O=C1CCC(N2C(=O)c3ccc(N4CCOCC4)cc3C2=O)C(=O)N1 (stereo not drawn) [B03]
B03_logFC (Degron-ID 4399, SEQ ID NO 3878, 46F_47Y_49E_50I_52G_53A_54Y_55F_67L): 2.886
B03_logFC (Degron-ID 4400, SEQ ID NO 4373, 46F_47Y_49E_50Q_52G_53A_54A_55F_67L_): 2.084
B03_logFC (Degron-ID 4401, SEQ ID NO 4264, 46F_47Y_49E_50Q_52G_53A_54C_55F_67L_): 2.268
B03_logFC (Degron-ID 4414, SEQ ID NO 3762, 46F_47Y_49E_50Q_52G_53A_54R_55F_67L_): 3.104
B03_logFC (Degron-ID 4423, SEQ ID NO 3834, 46F_47Y_49E_50V_52G_53A_54E_55F_67L_): 2.951
B03_logFC (Degron-ID 4424, SEQ ID NO 3933, 46F_47Y_49E_50V_52G_53A_54F_55F_67L): 2.783
B03_logFC (Degron-ID 4425, SEQ ID NO 3699, 46F_47Y_49E_50V_52G_53A_54G_55F_67L_): 3.223
B03_logFC (Degron-ID 4429, SEQ ID NO 3789, 46F_47Y_49E_50V_52G_53A_54L_55F_67L_): 3.029
B03_logFC (Degron-ID 4439, SEQ ID NO 3889, 46F_47Y_49E_50V_52G_53A_54Y_55F_67L): 2.87
B03_logFC (Degron-ID 4440, SEQ ID NO 3822, 46F_47Y_49N_50I_52G_53A_54A_55F_67L_): 2.967
B03_logFC (Degron-ID 4441, SEQ ID NO 3733, 46F_47Y_49N_50I_52G_53A_54C_55F_67L_): 3.151
B03_logFC (Degron-ID 4446, SEQ ID NO 3904, 46F_47Y_49N_50I_52G_53A_54H_55F_67L): 2.843
B03_logFC (Degron-ID 4448, SEQ ID NO 4311, 46F_47Y_49N_50I_52G_53A_54K_55F_67L_): 2.189
B03_logFC (Degron-ID 4451, SEQ ID NO 3872, 46F_47Y_49N_50I_52G_53A_54N_55F_67L): 2.893
B03_logFC (Degron-ID 4453, SEQ ID NO 3738, 46F_47Y_49N_50I_52G_53A_54Q_55F_67L_): 3.148
B03_logFC (Degron-ID 4455, SEQ ID NO 3838, 46F_47Y_49N_50I_52G_53A_54S_55F_67L_): 2.946
B03_logFC (Degron-ID 4480, SEQ ID NO 4429, 46F_47Y_49N_50V_52G_53A_54A_55F_67L_): 2.012
B03_logFC (Degron-ID 4500, SEQ ID NO 3690, 46F_47Y_49P_50I_52G_53A_54A_55F_67L_): 3.239
B03_logFC (Degron-ID 4504, SEQ ID NO 3885, 46F_47Y_49P_50I_52G_53A_54F_55F_67L): 2.873
B03_logFC (Degron-ID 4505, SEQ ID NO 4416, 46F_47Y_49P_50I_52G_53A_54G_55F_67L_): 2.023
B03_logFC (Degron-ID 4507, SEQ ID NO 3913, 46F_47Y_49P_50I_52G_53A_54I_55F_67L): 2.825
B03_logFC (Degron-ID 4508, SEQ ID NO 3772, 46F_47Y_49P_50I_52G_53A_54K_55F_67L_): 3.067
B03_logFC (Degron-ID 4509, SEQ ID NO 3843, 46F_47Y_49P_50I_52G_53A_54L_55F_67L_): 2.934
B03_logFC (Degron-ID 4512, SEQ ID NO 3680, 46F_47Y_49P_50I_52G_53A_54P_55F_67L_): 3.274
B03_logFC (Degron-ID 4517, SEQ ID NO 3792, 46F_47Y_49P_50I_52G_53A_54V_55F_67L_): 3.027
B03_logFC (Degron-ID 4519, SEQ ID NO 3756, 46F_47Y_49P_50I_52G_53A_54Y_55F_67L_): 3.116
B03_logFC (Degron-ID 4521, SEQ ID NO 4344, 46F_47Y_49P_50Q_52G_53A_54C_55F_67L_): 2.136
B03_logFC (Degron-ID 4534, SEQ ID NO 4380, 46F_47Y_49P_50Q_52G_53A_54R_55F_67L_): 2.067
B03_logFC (Degron-ID 4535, SEQ ID NO 4338, 46F_47Y_49P_50Q_52G_53A_54S_55F_67L_): 2.146
B03_logFC (Degron-ID 4540, SEQ ID NO 3901, 46F_47Y_49P_50V_52G_53A_54A_55F_67L): 2.85
B03_logFC (Degron-ID 4543, SEQ ID NO 4308, 46F_47Y_49P_50V_52G_53A_54E_55F_67L_): 2.191
B03_logFC (Degron-ID 4545, SEQ ID NO 4379, 46F_47Y_49P_50V_52G_53A_54G_55F_67L_): 2.073
B03_logFC (Degron-ID 4548, SEQ ID NO 3914, 46F_47Y_49P_50V_52G_53A_54K_55F_67L): 2.823
B03_logFC (Degron-ID 4549, SEQ ID NO 3890, 46F_47Y_49P_50V_52G_53A_54L_55F_67L): 2.87
B03_logFC (Degron-ID 4552, SEQ ID NO 3691, 46F_47Y_49P_50V_52G_53A_54P_55F_67L_): 3.239
B03_logFC (Degron-ID 4554, SEQ ID NO 3776, 46F_47Y_49P_50V_52G_53A_54R_55F_67L_): 3.052
B03_logFC (Degron-ID 4555, SEQ ID NO 3669, 46F_47Y_49P_50V_52G_53A_54S_55F_67L_): 3.296
B03_logFC (Degron-ID 4557, SEQ ID NO 3895, 46F_47Y_49P_50V_52G_53A_54V_55F_67L): 2.859
B03_logFC (Degron-ID 6173, SEQ ID NO 4356, 46F_47F_49P_50I_52G_53R_54Q_55F_67L_): 2.114
B03_logFC (Degron-ID 6352, SEQ ID NO 3871, 46F_47R_49P_50I_52G_53R_54P_55F_67L): 2.893
B03_logFC (Degron-ID 6433, SEQ ID NO 3831, 46F_47W_49P_50I_52G_53R_54Q_55F_67L_): 2.956
B03_logFC (Degron-ID 6460, SEQ ID NO 3836, 46L_47A_49P_50I_52G_53F_54A_55C_67L_): 2.95
